Laboratory results published in article PMC6048764, “Myricetin antagonizes semen-derived enhancer of viral infection (SEVI) formation and influences its infection-enhancing activity” (Retrovirology, 2018).
No constants are given. Whether binding was seen depends on the method and setting.

Key:
SEM1_(86–107) (human) = SEM1_(86–107) (human) (UniProt P04279); assay: thioflavin T fluorescence; amyloid fibril formation; peptide 3 mg/ml agitated at 1400 rpm at 37 °C in the presence of myricetin 200 µg/ml; both purified
SEM2_(86–107) (human) = SEM2_(86–107) (human) (UniProt Q02383); assay: as above

B1: SEM1_(86–107) (peptide, UniProt P04279 86-107, looked up)
peptide: DLNALHKTTKSQRHLGGSQQLL
notes: source: synthetic peptide (Scilight Biotechnology LLC, Beijing)
B1 was tested, and the binding (SEM1_(86–107) (human)) was “no binding (condition: with myricetin 200 µg/ml)”.

B2: SEM2_(86–107) (peptide, UniProt Q02383 86-107, looked up)
peptide: DLNALHKATKSKQHLGGSQQLL
notes: as for B1
B2 was tested, and the binding (SEM2_(86–107) (human)) was “no binding (condition: with myricetin 200 µg/ml)”.
